In PMC7892347:
These are yes or no findings as the source states them, for the method shown. For some assays here: In cells and extracts the contact can be indirect. Some binding calls cover weakened binding; strength is not graded here.

Amino acid sequences for entries named in this document (tags omitted). A change or cut given only in a name is not applied to a line headed by its entry. Residues count along the entry.
UniProt Q92673: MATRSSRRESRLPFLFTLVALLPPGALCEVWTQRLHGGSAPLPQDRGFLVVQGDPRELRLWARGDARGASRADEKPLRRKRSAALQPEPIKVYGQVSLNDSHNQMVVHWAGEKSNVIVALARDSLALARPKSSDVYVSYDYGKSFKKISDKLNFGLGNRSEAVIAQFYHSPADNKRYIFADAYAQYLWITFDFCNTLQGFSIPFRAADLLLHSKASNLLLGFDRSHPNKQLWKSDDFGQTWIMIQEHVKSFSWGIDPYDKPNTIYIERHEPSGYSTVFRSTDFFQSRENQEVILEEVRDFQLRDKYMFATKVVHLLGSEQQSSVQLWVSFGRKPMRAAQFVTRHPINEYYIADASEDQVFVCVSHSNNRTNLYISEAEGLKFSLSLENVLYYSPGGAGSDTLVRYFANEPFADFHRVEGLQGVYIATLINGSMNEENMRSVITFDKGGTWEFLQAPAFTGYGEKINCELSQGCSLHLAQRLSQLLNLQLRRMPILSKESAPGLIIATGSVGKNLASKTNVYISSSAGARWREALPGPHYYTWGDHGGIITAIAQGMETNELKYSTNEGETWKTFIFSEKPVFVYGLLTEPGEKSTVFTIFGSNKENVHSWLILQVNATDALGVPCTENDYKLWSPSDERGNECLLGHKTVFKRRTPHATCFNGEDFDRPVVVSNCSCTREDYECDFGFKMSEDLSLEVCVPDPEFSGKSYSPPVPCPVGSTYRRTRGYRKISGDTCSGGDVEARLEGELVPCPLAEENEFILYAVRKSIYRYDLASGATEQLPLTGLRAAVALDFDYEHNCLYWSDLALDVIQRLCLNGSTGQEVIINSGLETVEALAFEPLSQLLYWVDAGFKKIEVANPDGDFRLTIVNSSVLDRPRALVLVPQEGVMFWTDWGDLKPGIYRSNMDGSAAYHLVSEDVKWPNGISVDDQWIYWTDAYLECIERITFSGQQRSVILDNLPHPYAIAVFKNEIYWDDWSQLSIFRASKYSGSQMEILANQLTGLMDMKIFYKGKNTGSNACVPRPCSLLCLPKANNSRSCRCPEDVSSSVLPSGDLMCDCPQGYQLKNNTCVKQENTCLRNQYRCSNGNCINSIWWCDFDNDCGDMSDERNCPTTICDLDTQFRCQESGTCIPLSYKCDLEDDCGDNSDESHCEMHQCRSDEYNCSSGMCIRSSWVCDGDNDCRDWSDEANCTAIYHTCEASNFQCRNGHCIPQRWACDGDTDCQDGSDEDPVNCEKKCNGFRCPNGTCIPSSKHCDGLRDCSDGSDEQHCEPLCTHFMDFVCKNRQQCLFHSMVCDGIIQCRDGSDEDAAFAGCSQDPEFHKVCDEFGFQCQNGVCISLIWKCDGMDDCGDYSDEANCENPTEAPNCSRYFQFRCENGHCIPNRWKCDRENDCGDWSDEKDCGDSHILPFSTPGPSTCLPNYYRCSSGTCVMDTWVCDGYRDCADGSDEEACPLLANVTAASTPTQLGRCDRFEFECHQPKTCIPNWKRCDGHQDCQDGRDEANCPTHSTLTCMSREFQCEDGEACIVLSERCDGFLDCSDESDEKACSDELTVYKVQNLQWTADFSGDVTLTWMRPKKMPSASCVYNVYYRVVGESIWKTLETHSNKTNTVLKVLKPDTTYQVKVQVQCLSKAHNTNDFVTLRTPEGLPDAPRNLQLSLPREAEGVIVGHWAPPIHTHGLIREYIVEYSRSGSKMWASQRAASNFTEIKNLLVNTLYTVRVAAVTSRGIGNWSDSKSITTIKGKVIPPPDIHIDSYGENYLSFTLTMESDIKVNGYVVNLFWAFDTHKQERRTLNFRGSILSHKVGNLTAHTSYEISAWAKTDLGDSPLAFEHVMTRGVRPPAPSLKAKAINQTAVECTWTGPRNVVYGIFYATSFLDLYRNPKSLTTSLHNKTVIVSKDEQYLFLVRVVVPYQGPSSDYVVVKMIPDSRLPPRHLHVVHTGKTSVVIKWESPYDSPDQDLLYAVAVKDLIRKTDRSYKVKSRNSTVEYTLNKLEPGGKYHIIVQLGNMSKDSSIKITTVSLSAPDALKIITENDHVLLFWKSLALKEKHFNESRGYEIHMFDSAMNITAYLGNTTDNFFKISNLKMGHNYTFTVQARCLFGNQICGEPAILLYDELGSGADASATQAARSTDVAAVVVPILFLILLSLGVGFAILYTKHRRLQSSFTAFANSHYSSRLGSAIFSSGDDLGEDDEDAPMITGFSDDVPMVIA
SorLA-v1: residues 82-2214 of Q92673
SorLA ectodomain: residues 82-2137 of Q92673
UniProt P21860: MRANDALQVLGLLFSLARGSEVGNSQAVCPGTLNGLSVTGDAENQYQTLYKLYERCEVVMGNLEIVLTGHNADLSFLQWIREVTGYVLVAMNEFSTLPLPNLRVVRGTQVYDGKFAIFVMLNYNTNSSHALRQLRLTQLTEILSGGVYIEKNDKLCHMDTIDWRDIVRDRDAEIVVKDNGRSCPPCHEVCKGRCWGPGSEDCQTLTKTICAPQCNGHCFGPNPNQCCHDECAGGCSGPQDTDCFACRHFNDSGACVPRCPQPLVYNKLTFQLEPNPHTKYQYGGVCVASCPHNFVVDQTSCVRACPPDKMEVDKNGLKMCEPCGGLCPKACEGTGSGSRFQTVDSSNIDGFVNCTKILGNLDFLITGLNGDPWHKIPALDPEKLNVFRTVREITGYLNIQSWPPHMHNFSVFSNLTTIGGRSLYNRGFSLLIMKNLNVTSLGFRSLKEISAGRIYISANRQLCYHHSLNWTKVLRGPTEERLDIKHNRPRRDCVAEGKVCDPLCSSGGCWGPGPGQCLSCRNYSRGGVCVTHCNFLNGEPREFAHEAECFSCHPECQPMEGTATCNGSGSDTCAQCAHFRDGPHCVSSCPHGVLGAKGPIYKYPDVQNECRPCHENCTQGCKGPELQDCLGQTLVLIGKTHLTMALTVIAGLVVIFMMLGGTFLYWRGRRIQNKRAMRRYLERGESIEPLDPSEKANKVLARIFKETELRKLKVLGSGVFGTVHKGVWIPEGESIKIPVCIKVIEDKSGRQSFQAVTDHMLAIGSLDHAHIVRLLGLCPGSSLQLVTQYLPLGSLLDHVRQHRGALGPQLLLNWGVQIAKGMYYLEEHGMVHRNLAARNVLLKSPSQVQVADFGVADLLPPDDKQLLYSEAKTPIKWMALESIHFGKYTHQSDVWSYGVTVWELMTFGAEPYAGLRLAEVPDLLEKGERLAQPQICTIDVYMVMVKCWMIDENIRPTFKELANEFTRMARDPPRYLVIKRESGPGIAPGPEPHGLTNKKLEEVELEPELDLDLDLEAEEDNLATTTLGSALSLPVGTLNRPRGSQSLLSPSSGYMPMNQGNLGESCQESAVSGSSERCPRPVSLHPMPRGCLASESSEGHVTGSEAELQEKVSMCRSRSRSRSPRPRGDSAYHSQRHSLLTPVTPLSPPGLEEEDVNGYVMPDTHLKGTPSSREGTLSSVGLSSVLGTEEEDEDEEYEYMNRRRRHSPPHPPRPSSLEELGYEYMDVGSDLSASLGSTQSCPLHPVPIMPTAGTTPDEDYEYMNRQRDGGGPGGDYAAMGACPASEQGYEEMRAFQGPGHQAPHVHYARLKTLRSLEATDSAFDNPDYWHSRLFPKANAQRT

How the values were obtained:
[1] = target: SorLA ectodomain (UniProt Q92673); assay: SPR; BIAcore3000; SorLA ectodomain immobilised on a CM5 chip at 56 fmol/mm^2; concentration series of HER3 (20-200 nM) or HER2 flowed over; pH 6.0; both purified
[2] = target: SorLA ectodomain (UniProt Q92673); assay: SPR; BIAcore3000; SorLA ectodomain immobilised on a CM5 chip at 56 fmol/mm^2; concentration series of HER3 (20-200 nM) or HER2 flowed over; 10 mM Hepes, pH 7.4/150 mM NaCl/5 mM CaCl2/0.005% Tween 20; both purified
[3] = target: SorLA ectodomain (UniProt Q92673); assay: SPR; BIAcore3000; SorLA ectodomain immobilised on a CM5 chip at 56 fmol/mm^2; concentration series of HER3 (20-200 nM) or HER2 flowed over; pH 5.0; both purified
[4] = target: SorLA-v1 (UniProt Q92673); assay: split reporter; BiFC of Venus fragments v1 and v2 fused to the two proteins, coexpressed in BT-474 cells; confocal imaging of reconstituted Venus

binding [1] | binding [2] | binding [3] | binding [4] | Substance
binds | binds | binds | – | HER2 ectodomain (ACRO Biosystems, HE2-H5212) (from UniProt P04626 23-652) (domain or fragment)
– | – | – | binds | HER2-v2 (from UniProt P04626 23-1255) (receptor)
binds | binds | binds | – | HER3 ectodomain (ACRO Biosystems, ER3-H5223) (from UniProt P21860 20-643) (domain or fragment)
– | – | – | binds | HER3-v2 (from UniProt P21860 20-1342) (receptor)
